Assay results reported in EP4643867A1 (Eberhard Karls Universität Tübingen (Medizinische Fakultät), dated 2025).
These are yes or no findings as the source states them, for the method shown. Some entries that bind do so weakly or less than the wild type.

The chains behind the UniProt entries cited, without tags or fusion partners. Residues count along the entry.
UniProt P15692, residues 214-315: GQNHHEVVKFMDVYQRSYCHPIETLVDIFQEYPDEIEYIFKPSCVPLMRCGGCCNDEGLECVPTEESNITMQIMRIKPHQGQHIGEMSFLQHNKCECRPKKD

What was measured:
[1] = molecular target: human VEGF165 (Gly34-Asp135) (human) (UniProt P15692); experiment: NMR 15N-HSQC titration of labelled Sam (Sam0.2 by the methods) with unlabelled VEGF
[2] = molecular target: human VEGF165 (Gly34-Asp135) (human) (UniProt P15692); experiment: NMR 15N-HSQC titration, legend of Fig. 14

B1: Sam0.2 (designed binder, not shown: small tags and cut ends)
chain: LPTAEEVQKLMARYIELMDVGDIEAIVQMYADDATVEAPFGAPPIHGRERIAYFYRRMLGEGIARATLTGPVRASHNGTGAMPFRVEYVFNGQPYAMDVRVEMRFDEHGRIQTMQAYWSEVNDSVREP
In the case of B1, the binding [1] is reported as “binds” and the binding [2] is reported as “binds”.
